{"source": "paper PMC12040169", "about": "(PLOS Biology, 2025)", "note": "The list shows a part of the results.", "data": [{"system": "T1, CTL2-GFP (C. trachomatis L2/434/Bu, GFP-expressing)", "T1 construct": "L2/434/Bu, GFP-expressing", "parameters": "species or system HeLa; Intracellular C. trachomatis growth in HeLa cells, bulk GFP fluorescence relative to DMSO", "conditions": "bulk GFP, single well; 28.5 h, 10 µM; inhibitor", "units": {"% of control remaining": "%"}, "values": [{"smiles": "COc1ccc(CCNC(=O)N2CCCC(CO)C2)cc1", "note": "(centres unmarked) [CBK156059]", "% of control remaining": 107.469}, {"smiles": "Cc1ccc2nc(Cn3cc(-c4cnn(Cc5ccccc5)c4)cn3)cn2c1", "note": "[CBK297125]", "% of control remaining": 131.374}, {"smiles": "CC1Cc2cc(C(O)CN3CCC(O)(c4ccccc4F)CC3)ccc2N1S(C)(=O)=O", "note": "(centres unmarked) [CBK283091]", "% of control remaining": 136.529}, {"smiles": "O=C(NCc1ccccn1)C(=O)N/N=C/c1ccccc1[N+](=O)[O-]", "note": "[CBK262204]", "% of control remaining": 122.592}, {"smiles": "CC(C)CC(NC(=O)c1ccco1)c1nc2cccnc2n1C", "note": "(centres unmarked) [CBK283827]", "% of control remaining": 125.54}, {"smiles": "Cc1cn2c3c(=O)n(C)c(=O)n(C)c3nc2n1CCN1CCOCC1", "note": "[CBK270139]", "% of control remaining": 139.511}, {"smiles": "CC(=O)N1CCc2cc(NCc3nc4ccccc4n3C(C)c3ccccc3)ccc21", "note": "(centres unmarked) [CBK285621]", "% of control remaining": 126.473}, {"smiles": "O=C(Nc1ccc(Br)cc1C(=O)c1ccccc1)c1ccc([N+](=O)[O-])s1", "note": "[CBK066838]", "% of control remaining": 92.1895}, {"smiles": "O=C(Nc1sc2c(c1C(=O)O)CCCC2)c1cc2ccccc2o1", "note": "[CBK264551]", "% of control remaining": 125.963}, {"smiles": "CCn1cc(C(=O)N2CCCC2c2nc3ccccc3[nH]2)cn1", "note": "(centres unmarked) [CBK283776]", "% of control remaining": 130.036}, {"smiles": "CC(C)NC(=O)[C@@H](C)C1CC[C@@]2(C)CC[C@H](NC(=O)c3cncnc3)[C@@H](C)[C@@H]2[C@H]1O", "note": "(some centres unmarked) [CBK289454]", "% of control remaining": 108.086}, {"smiles": "COc1ccc(Cn2c(=O)[nH]n(-c3ccccc3)c2=O)cc1F", "note": "[CBK122772]", "% of control remaining": 110.418}, {"smiles": "Cc1ccc(OCc2nnc(SCC(=O)c3cccc([N+](=O)[O-])c3)n2C)cc1", "note": "[CBK268580]", "% of control remaining": 139.5}, {"smiles": "O=C(Nc1cccc2cccnc12)c1cccc2ccccc12", "note": "[CBK261473]", "% of control remaining": 94.454}, {"smiles": "FC(F)(F)c1cccc(OCc2ccc(-c3ccccc3)cc2)n1", "note": "[CBK115836]", "% of control remaining": 156.839}, {"smiles": "COc1ccc(OC)c(-c2cc(C(=O)O)c(C)o2)c1", "note": "[CBK049343]", "% of control remaining": 114.034}, {"smiles": "COc1ccc2[nH]cc(CCNC(=O)N(C)C3CCN(C)C3)c2c1", "note": "(centres unmarked) [CBK156004]", "% of control remaining": 90.3694}, {"smiles": "CC1(C)OCC2(CCN(C(C)(C)C)CC2)O1", "note": "[CBK038298]", "% of control remaining": 121.621}, {"smiles": "CCC(Oc1cccc(Cl)c1)C(=O)NN1CCN(C)CC1", "note": "(centres unmarked) [CBK268135]", "% of control remaining": 98.1552}, {"smiles": "COc1ccc(NS(=O)(=O)c2cc(C(=O)O)c(Cl)cc2Cl)cc1", "note": "[CBK095077]", "% of control remaining": 100}, {"smiles": "N#CCCN(C1CCCCC1)S(=O)(=O)c1ccc(-c2ccc([N+](=O)[O-])cc2)cc1", "note": "[CBK261382]", "% of control remaining": 101.519}, {"smiles": "O=C(O)c1cccc(CSc2nc3ccccc3o2)c1", "note": "[CBK270193]", "% of control remaining": 112.156}, {"smiles": "C=CCN1C(=O)CC2(C1=O)C(=O)N(Cc1ccc(S(=O)(=O)N(CC)CC)cc1)c1ccc(Cl)cc12", "note": "(centres unmarked) [CBK075412]", "% of control remaining": 97.4584}, {"smiles": "Cc1cc(C(=O)CSc2nnc(C3CC3)[nH]2)c(C)n1-c1cccc(C(F)(F)F)c1", "note": "[CBK295310]", "% of control remaining": 117.35}, {"smiles": "CC(C)c1ccc(C(C)NC(=O)c2cccn(CC(=O)NC3CCCC3)c2=O)cc1", "note": "(centres unmarked) [CBK286018]", "% of control remaining": 117.213}, {"smiles": "COc1ccc2[nH]cc(CC(=O)Nc3nc4c(OC)cccc4s3)c2c1", "note": "[CBK149279]", "% of control remaining": 123.649}, {"smiles": "CCOC(=O)C(Cc1ccccc1)C(=O)Nc1ccc(Cl)cc1", "note": "(centres unmarked) [CBK261463]", "% of control remaining": 108.396}, {"smiles": "CCn1c(SCc2cccnc2)nc2c(c1=O)SC(C)C2", "note": "(centres unmarked) [CBK287643]", "% of control remaining": 102.802}, {"smiles": "CN(C)CC(=O)N1CCc2nc(-c3ccccc3F)sc2C1", "note": "[CBK281918]", "% of control remaining": 147.139}, {"smiles": "Cc1cc(=O)n2c(C(=O)Nc3cccc(C(=O)O)c3)c(C(=O)Nc3cccc(C)c3C)sc2n1", "note": "[CBK297545]", "% of control remaining": 87.9292}, {"smiles": "CN(C)CCN(C)Cc1ccc2c(c1)Cc1ccccc1-2", "note": "[CBK261856]", "% of control remaining": 116.603}, {"smiles": "O=C(c1cnc(-c2ccncc2)s1)N(CC(F)(F)F)C1CCC1", "note": "[CBK304119]", "% of control remaining": 112.798}, {"smiles": "O=C(c1cccnc1)C1CCN(C(=O)C2CCCCC2)CC1", "note": "[CBK283817]", "% of control remaining": 119.89}, {"smiles": "O=C(NCC(=O)N(c1cccc(C(F)(F)F)c1)C(C(=O)NCc1ccco1)c1ccccc1F)c1ccco1", "note": "(centres unmarked) [CBK084740]", "% of control remaining": 92.5971}, {"smiles": "O=C1c2ccc(Oc3ccc4c(c3)C(=O)N(c3cccnc3)C4=O)cc2C(=O)N1c1cccnc1", "note": "[CBK262773]", "% of control remaining": 118.784}, {"smiles": "COc1ccccc1CN(CC1CCNCC1)C(=O)NC(c1ccccc1)c1ccccc1", "note": "[CBK049741]", "% of control remaining": 86.6439}, {"smiles": "Cc1nc(C)c(C(=O)Nc2nn(C)c3cccc(N4CCOCC4)c23)o1", "note": "[CBK306534]", "% of control remaining": 130.917}, {"smiles": "Cc1cc(N2C(=O)c3oc4ccccc4c(=O)c3C2c2ccncc2)no1", "note": "(centres unmarked) [CBK287780]", "% of control remaining": 105.571}, {"smiles": "O=C(Cc1c[nH]c2ccccc12)N1CCC2(CCCN(C(=O)c3cscn3)C2)C1", "note": "(centres unmarked) [CBK131590]", "% of control remaining": 117.35}, {"smiles": "O=C(O)CC(Cc1ccc(Cl)cc1)C(=O)Nc1ccccc1I", "note": "(centres unmarked) [CBK262021]", "% of control remaining": 92.949}, {"smiles": "COc1ccc(CCC(=O)Nc2ncccc2OCCCC#N)cc1", "note": "[CBK304957]", "% of control remaining": 96.6175}, {"smiles": "Cc1ccc(C(=O)COC(=O)c2cc(O)nc3ccccc23)cc1[N+](=O)[O-]", "note": "[CBK264085]", "% of control remaining": 114.403}, {"smiles": "Cn1ccc(C(=O)NCc2cccnc2OCC(F)(F)F)cc1=O", "note": "[CBK305574]", "% of control remaining": 144.458}, {"smiles": "CCOC(=O)C1CCCN(C(=O)Cn2ccc3sccc3c2=O)C1", "note": "(centres unmarked) [CBK304099]", "% of control remaining": 114.845}, {"smiles": "CCN(CC)C(=O)C1CCN(S(=O)(=O)c2ccc(C)cc2)CC1", "note": "[CBK157834]", "% of control remaining": 100.728}, {"smiles": "COc1cncc(-c2cccc(NCC(c3cccnc3)N(C)C)n2)c1", "note": "(centres unmarked) [CBK037741]", "% of control remaining": 149.712}, {"smiles": "c1coc(-c2cc(NC3CCCCC3)ncn2)c1", "note": "[CBK090901]", "% of control remaining": 102.009}, {"smiles": "Cc1cc(N(C)C)cc(C2CCCN(C(=O)c3cccc(F)c3)C2)n1", "note": "(centres unmarked) [CBK282003]", "% of control remaining": 134.526}, {"smiles": "COC1=CC2CCNC(CCCCC3NCCc4cc(OC)c(OC)cc43)C2C=C1OC", "note": "(centres unmarked) [CBK013354]", "% of control remaining": 117.281}, {"smiles": "CC(C)(C)OC(=O)NNC(=S)Nc1ccc(S(N)(=O)=O)cc1", "note": "[CBK267107]", "% of control remaining": 168.841}, {"smiles": "COc1nccnc1-c1cc2ccccc2s1", "note": "[CBK106781]", "% of control remaining": 138.342}, {"smiles": "CCOC(=O)c1ccc(-n2c(CCC(=O)O)ccc2-c2ccc(F)cc2)cc1O", "note": "[CBK266010]", "% of control remaining": 198.49}, {"smiles": "O=C(Nc1ccc2[nH]ccc2c1)c1c(F)cccc1F", "note": "[CBK144711]", "% of control remaining": 152.067}, {"smiles": "CS(=O)(=O)c1ccc(-c2ccc3c(n2)CCN(C2CCN(C(=O)OCc4ccccc4)CC2)C3)cc1", "note": "[CBK169530]", "% of control remaining": 103.013}, {"smiles": "CN1C[C@@H](NC(=O)Nc2ccccc2)C[C@H]1c1nc(-c2cnccn2)no1", "note": "[CBK288851]", "% of control remaining": 127.151}, {"smiles": "O=C(Cc1ccccc1[N+](=O)[O-])Nc1ccc(S(=O)(=O)N2CCCC2)cc1", "note": "[CBK265292]", "% of control remaining": 122.822}, {"smiles": "CCn1cc(CN2CCC(c3cc(Cc4cccc(OC)c4)cc(C)n3)CC2)c(C)n1", "note": "[CBK285671]", "% of control remaining": 105.149}, {"smiles": "O=C(c1ccc(-c2cnc3[nH]c(=O)n(Cc4ccccn4)c3n2)cc1)N1CCOCC1", "note": "[CBK064413]", "% of control remaining": 123.27}, {"smiles": "Cc1nn(C)c(N2CCNCC2)c1NC(=O)Cc1c[nH]c2ccccc12", "note": "[CBK050256T]", "% of control remaining": 100.659}, {"smiles": "CC(=O)Nc1cccc(NC(=O)N2CCCC(CO)C2)c1", "note": "(centres unmarked) [CBK156049]", "% of control remaining": 118.093}, {"smiles": "O=C(N/N=C/c1ccc(N2N=C(c3ccc(Cl)cc3)CC2c2ccc(Cl)cc2)cc1)c1cccnc1", "note": "(centres unmarked) [CBK262494]", "% of control remaining": 66.7284}, {"smiles": "C=CCC(NCc1ccccc1)c1ccc(C(=O)O)o1", "note": "(centres unmarked) [CBK286591]", "% of control remaining": 124.14}, {"smiles": "c1ccc2c(Sc3cc(N4CCCC4)ncn3)cccc2c1", "note": "[CBK089538]", "% of control remaining": 93.0091}, {"smiles": "CNC(=O)CSc1nc2ccccc2nc1NC(C)C", "note": "[CBK107171]", "% of control remaining": 100}, {"smiles": "O=C(O)CN1C(=O)c2ccc(C(=O)c3ccc4c(c3)C(=O)N(CC(=O)O)C4=O)cc2C1=O", "note": "[CBK262166]", "% of control remaining": 100}, {"smiles": "O=C1N[C@H]2CCCN(C(=O)Cn3cccnc3=O)[C@H]2CCCCCOc2ccccc21", "note": "[CBK292096]", "% of control remaining": 144.004}, {"smiles": "COc1ccc(-c2ccc(/C=N/N=C3\\NC(=O)C(CC(=O)O)S3)o2)c([N+](=O)[O-])c1", "note": "(centres unmarked) [CBK264516]", "% of control remaining": 112.225}, {"smiles": "Cc1cc(C(=O)N2CCC(c3nn(C)c4ncccc34)CC2)cs1", "note": "[CBK284987]", "% of control remaining": 84.0353}, {"smiles": "COc1cccc(N2C(=O)/C(=C/c3ccc(O)c(O)c3)SC2=S)c1", "note": "[CBK263096]", "% of control remaining": 100}, {"smiles": "Fc1cccc(Cl)c1CNc1ccc(CNc2ncn[nH]2)cc1", "note": "[CBK267245]", "% of control remaining": 150.162}, {"smiles": "CCSc1nc(N)cc(O)n1", "note": "[CBK086474]", "% of control remaining": 105.615}, {"smiles": "OC(COc1ccccc1)Cn1ncnn1", "note": "(centres unmarked) [CBK026083]", "% of control remaining": 119.225}, {"smiles": "CN(C)CCCNC(=O)COc1ccccc1", "note": "[CBK262189]", "% of control remaining": 113.748}, {"smiles": "O=C(COC(=O)c1cc(S(=O)(=O)N2CCCCC2)ccc1Cl)c1ccccc1", "note": "[CBK261657]", "% of control remaining": 110.911}, {"smiles": "CCn1cc(C(=O)N2CCC(C(=O)O)CC2)c(=O)c2cc3c(cc21)OCO3", "note": "[CBK286713]", "% of control remaining": 113.579}, {"smiles": "CN(C)CCN(C)S(=O)(=O)c1ccc(C(C)(C)C)cc1", "note": "[CBK059035T]", "% of control remaining": 124.84}, {"smiles": "Cc1c(-c2cncn2CC(=O)NC(C)(C)C)[nH]c2ccccc12", "note": "[CBK281911]", "% of control remaining": 109.026}]}]}
